The results in this text go back to patent publication US11229604B2, “Microspheres containing therapeutic agents and related methods of use” (Biosphere Medical, Inc., priority 2017, dated 2022).

The series in a line: Cyclodextrin drug loading monitored by 1H NMR (β-cyclodextrins). Format: binding. The note with it: 400 MHz NMR, water and deuterated water, 25° C.

Regarding `N.N.[Cl][Pt][Cl]` [cisplatin], the “loading and binding of platinum-based drug by β-cyclodextrins (consistent shifts of the cyclodextrin signals in 1H NMR)” value was “capable of loading and binding”.

As to `O=C1[O][Pt]2([NH][C@@H]3CCCC[C@H]3[NH]2)[O]C1=O` [oxaliplatin], the “loading and binding of platinum-based drug by β-cyclodextrins (consistent shifts of the cyclodextrin signals in 1H NMR)” value is “capable of loading and binding”.
